Assay results: publication PMC10111829
These are yes or no findings as the source states them, for the method shown. Binding seen in cells or lysates may run through a third protein. Some binding calls cover weakened binding; strength is not graded here.

By UniProt entry, the sequences of proteins in these tests, tags left out.
UniProt P35579: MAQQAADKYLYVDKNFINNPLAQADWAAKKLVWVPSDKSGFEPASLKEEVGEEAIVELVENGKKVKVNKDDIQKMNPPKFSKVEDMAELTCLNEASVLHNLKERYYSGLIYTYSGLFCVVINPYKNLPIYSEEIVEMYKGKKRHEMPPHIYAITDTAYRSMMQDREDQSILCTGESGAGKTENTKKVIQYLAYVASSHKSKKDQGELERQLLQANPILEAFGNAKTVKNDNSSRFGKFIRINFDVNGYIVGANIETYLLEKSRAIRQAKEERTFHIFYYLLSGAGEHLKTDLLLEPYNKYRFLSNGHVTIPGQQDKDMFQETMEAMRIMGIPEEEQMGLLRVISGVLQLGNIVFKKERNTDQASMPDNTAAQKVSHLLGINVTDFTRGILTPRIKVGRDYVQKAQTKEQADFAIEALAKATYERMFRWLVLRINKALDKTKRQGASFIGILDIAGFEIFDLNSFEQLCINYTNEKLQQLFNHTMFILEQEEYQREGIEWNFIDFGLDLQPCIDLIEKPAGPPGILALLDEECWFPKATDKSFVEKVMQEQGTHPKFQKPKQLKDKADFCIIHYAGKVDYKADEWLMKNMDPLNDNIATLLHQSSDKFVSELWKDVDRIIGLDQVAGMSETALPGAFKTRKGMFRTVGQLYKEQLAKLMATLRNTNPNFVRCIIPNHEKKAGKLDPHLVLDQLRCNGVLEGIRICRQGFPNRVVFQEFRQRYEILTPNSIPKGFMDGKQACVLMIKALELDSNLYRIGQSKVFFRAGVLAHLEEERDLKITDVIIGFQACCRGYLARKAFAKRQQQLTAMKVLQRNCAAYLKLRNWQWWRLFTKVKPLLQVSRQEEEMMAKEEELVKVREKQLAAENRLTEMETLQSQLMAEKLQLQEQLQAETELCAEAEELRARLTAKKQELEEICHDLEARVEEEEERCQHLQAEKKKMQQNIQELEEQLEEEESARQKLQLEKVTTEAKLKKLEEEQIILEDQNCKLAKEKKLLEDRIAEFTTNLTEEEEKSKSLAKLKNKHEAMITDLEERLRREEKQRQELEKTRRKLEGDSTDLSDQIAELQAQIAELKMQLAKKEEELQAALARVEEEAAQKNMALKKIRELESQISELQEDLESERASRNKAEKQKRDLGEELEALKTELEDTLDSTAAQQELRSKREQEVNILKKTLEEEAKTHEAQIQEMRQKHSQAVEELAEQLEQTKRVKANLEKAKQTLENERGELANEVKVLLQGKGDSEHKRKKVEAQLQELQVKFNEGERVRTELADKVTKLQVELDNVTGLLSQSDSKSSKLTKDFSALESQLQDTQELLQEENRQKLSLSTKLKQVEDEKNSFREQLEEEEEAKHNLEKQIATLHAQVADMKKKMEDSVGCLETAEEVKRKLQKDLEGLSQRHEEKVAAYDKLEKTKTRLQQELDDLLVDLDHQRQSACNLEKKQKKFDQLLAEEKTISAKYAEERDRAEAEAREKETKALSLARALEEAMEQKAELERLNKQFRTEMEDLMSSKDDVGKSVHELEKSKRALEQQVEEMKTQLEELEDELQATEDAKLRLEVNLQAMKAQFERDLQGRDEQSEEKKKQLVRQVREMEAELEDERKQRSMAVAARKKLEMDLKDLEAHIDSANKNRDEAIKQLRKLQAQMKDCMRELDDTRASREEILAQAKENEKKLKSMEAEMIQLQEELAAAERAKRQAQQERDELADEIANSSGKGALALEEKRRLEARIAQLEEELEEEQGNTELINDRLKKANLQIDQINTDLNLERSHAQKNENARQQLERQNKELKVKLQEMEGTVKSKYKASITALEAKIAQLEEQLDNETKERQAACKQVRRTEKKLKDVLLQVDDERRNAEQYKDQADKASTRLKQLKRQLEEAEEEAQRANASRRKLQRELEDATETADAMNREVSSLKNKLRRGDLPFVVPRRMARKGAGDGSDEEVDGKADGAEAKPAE

Target: T1, TM4SF1 (human (endogenous in HCC cells)) (UniProt P30408)
T1 sequence: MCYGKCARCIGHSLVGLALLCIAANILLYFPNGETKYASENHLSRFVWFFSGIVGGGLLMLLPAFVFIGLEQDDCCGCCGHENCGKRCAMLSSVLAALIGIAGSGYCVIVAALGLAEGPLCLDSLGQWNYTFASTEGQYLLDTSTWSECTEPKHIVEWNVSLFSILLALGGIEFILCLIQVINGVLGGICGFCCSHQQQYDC
Test: co-IP; HCC cells lysed with mild lysate; primary antibody against the decoy protein (TM4SF1) overnight at 4 °C, protein A agarose beads 2-4 h at 4 °C, 3-4 washes with lysis buffer, western blot

MYH9 (from UniProt P35579 1-1960)
binding: binds
